For the test, the target named is FLAG-tag recombinant human resistin protein (human) (UniProt Q9HD89). The experiment in a line: co-IP; purified FLAG-hResistin mixed with hypoxic THP-1 macrophage lysate in 30 mM HEPES, 150 mM NaCl, 2 mM beta-mercaptoethanol, pH 7.5, 30 min at 30°C; then overnight at 4°C with anti-FLAG antibody-coupled AminoLink Plus resin; eluates blotted with anti-FLAG M2-HRP or anti-BTK; only the target purified.

Amino acid sequences for entries named in this document (tags omitted). Residues count along the entry.
UniProt Q9HD89, residues 19-108: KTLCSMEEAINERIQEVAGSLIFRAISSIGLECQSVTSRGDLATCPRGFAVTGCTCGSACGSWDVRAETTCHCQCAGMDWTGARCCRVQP
UniProt Q06187: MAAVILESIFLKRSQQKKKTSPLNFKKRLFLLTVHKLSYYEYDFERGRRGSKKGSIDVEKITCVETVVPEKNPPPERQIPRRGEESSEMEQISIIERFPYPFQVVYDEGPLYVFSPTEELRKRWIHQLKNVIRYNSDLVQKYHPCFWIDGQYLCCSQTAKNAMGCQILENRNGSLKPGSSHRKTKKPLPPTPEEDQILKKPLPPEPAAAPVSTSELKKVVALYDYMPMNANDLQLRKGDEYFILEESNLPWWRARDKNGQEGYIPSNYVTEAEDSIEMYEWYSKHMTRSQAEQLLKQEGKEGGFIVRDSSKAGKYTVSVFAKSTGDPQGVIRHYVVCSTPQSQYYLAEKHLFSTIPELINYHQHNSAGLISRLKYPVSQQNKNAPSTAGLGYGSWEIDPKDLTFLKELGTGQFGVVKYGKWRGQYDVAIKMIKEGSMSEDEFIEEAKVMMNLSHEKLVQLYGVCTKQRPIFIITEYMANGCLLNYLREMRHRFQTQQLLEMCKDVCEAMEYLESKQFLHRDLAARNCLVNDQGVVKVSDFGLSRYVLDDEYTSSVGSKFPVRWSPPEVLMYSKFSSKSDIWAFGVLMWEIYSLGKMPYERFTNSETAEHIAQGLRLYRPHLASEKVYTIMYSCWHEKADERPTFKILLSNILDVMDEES

No constants are given. Whether binding was seen depends on the method and setting. Binding seen in cells or lysates may run through a third protein. Some binding calls cover weakened binding; strength is not graded here.

For “Bruton's tyrosine kinase (from UniProt Q06187 1-659) (enzyme)”, the binding entry is reported as “binds”.

Values taken from paper PMC13068211.
